Results are given in words; binding and its absence hold for the method and conditions named. Some binding calls cover weakened binding; strength is not graded here.
Target: T1, E. coli aminomethyltransferase (T-protein) (E. coli) (UniProt P27248)
T1 sequence: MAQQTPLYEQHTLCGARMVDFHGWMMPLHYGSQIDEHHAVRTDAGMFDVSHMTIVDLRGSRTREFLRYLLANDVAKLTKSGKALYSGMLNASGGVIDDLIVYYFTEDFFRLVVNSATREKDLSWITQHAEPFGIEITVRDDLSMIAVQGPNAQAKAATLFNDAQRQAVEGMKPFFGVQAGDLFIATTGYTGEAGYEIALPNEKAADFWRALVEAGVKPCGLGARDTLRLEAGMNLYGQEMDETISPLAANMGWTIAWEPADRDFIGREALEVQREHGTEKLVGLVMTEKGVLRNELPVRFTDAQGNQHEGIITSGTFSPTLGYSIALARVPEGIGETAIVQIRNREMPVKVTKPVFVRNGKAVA
Test: co-purification on Ni-NTA; His-tagged T-protein captured from clarified E. coli lysate on Ni-NTA; 50 mM HEPES pH 7.5, 250 mM KCl; imidazole step gradient, 50 mM and 100 mM imidazole fractions combined; desalted

B1: H-protein of the glycine cleavage system (protein, UniProt P0A6T9 1-129)
chain: MSNVPAELKYSKEHEWLRKEADGTYTVGITEHAQELLGDMVFVDLPEVGATVSAGDDCAVAESVKAASDIYAPVSGEIVAVNDALSDSPELVNSEPYAGGWIFKIKASDESELESLLDATAYEALLEDE
binding: binds
